These are yes or no findings as the source states them, for the method shown. Binding seen in cells or lysates may run through a third protein. Binding calls can cover weak binding; strength is not graded here.
Molecular target: T1, IFT20 (Chlamydomonas reinhardtii (endogenous in Chlamydomonas cells)) (UniProt Q8LLV9)
T1 sequence: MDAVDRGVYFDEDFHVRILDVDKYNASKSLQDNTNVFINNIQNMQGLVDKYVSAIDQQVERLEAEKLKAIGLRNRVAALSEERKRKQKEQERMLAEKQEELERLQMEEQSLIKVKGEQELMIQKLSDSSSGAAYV
Assay: co-IP

In the case of Chlamyopsin6, the binding is reported as “binds”.

— doi:10.64898/2025.12.11.693822
